## Primary screen of a compound library

Amino acid sequences for entries named in this document (tags omitted).
UniProt E9BF75, entry or part of it: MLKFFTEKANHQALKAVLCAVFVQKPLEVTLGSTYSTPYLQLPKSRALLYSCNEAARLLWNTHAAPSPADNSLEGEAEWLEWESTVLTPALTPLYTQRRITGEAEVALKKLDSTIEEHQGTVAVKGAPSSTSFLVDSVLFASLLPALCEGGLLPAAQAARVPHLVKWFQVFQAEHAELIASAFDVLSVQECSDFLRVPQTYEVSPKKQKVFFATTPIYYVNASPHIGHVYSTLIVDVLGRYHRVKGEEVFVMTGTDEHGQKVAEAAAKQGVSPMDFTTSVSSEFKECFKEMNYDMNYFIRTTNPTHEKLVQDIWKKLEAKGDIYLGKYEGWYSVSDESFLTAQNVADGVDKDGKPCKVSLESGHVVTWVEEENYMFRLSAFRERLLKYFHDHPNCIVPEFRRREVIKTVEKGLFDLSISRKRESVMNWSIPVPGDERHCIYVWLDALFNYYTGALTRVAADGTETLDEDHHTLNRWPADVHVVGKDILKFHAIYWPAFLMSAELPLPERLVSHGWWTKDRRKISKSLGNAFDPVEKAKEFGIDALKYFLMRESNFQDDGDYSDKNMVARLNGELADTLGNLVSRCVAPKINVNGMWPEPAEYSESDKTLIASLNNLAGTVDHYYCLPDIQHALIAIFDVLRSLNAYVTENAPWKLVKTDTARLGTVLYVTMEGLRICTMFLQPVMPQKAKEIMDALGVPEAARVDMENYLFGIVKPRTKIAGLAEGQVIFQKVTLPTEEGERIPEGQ

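Methionyl-tRNA synthetase (putative), Leishmania donovani (UniProt E9BF75). Primary screen of methionyl-tRNA synthetase; the read-out is not stated. The test concentration is not given. The values are filed as inhibition. About 68,000 compounds were tested under these conditions; 0.035% (about 24) showed 50% or more at least once.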

Results are percentages, as filed.
The controls that fix the scale are not given in the record; negative values are as filed.
The compounds are a random part of those screened.

| SMILES | inhibition |
|---|---|
| `Cc1cccc(NS(=O)(=O)c2cc(C(=O)O)oc2C)c1` | 7.521% |
| `Cc1cnn(CC2CCCCN2CC(=O)N(C)Cc2ccc(C)o2)c1` (stereo unspecified) | 12.5% |
| `O=C(NCCCc1ccco1)c1ccc(N2CCOCC2)cc1` | 1.242% |
| `CN1C(=O)CCCC12CCCN(Cc1nccs1)C2` (stereo unspecified) | 9.343% |
| `Cc1ccc(S(=O)(=O)N2CCC(c3n[nH]cc3C(=O)N(C)C)CC2)cc1` | 8.924% |
| `Cc1nc(C2CN(C)CCO2)cc(N2CCC(CO)CC2)n1` (stereo unspecified) | 13.59% |
| `COc1cc2c(cc1-c1nc3c(cnn3C)[nH]1)OCO2` | 5.08% |
| `CCN(CC)Cc1cc(C(=O)N2CC[C@@]3(O)CCCC[C@H]3C2)c(C)o1` | 13.09% |
| `CC(C)c1cc(CNC(=O)N2CCC(Cc3cnn(C)c3)C2)on1` (stereo unspecified) | 9.816% |
| `COC(=O)c1ccc(NC(=O)NC2CCc3[nH]ncc3C2)cc1` (stereo unspecified) | 12.93% |
| `O=C(c1sccc1-n1cnnn1)N1CCCCC1` | 11.11% |
| `COc1cccc(COCC(=O)N2CCCN(CC(N)=O)CC2)c1` | 18.03% |
| `O=C([C@H]1C[C@@H]2[C@@H](C1)OCCN2CC1CC1)N1CCCC1` | 10.73% |
| `CCc1nc(CN2CCN(C(=O)COCc3ccccc3)CC2)no1` | 8.55% |
| `CCc1nc(CNCC2CCCN2c2cccnn2)no1` (stereo unspecified) | 17.13% |
| `COc1ccc(C2CCCN2Cc2nnnn2C2CC2)cc1OC` (stereo unspecified) | 8.782% |
| `CSCCCNC(=O)C(c1cccc(F)c1)N(C)C` (stereo unspecified) | 16.05% |
| `Cc1cc2n(n1)[C@@H](C(F)(F)F)C[C@@H](C1CCCN(C(=O)C(C)C)C1)N2` (stereo partly specified) | 17.36% |
| `Cn1cc(CN2CCOC(CCNC(=O)c3ccsc3)C2)cn1` (stereo unspecified) | 13.14% |
| `CC(=O)c1cccc(S(=O)(=O)NCC(C)(O)c2cccs2)c1` (stereo unspecified) | 8.696% |
| `CC(C)(C)S(=O)(=O)c1ccc(N2CCC(n3cccn3)CC2)cn1` | 6.866% |
| `CN(C)C(=O)CN1CCC2(COCc3cnc(-c4cccnc4)nc32)C1` (stereo unspecified) | 9.819% |
| `O=C(CCn1cncn1)N1C[C@H]2CC[C@@H]1CN(Cc1ccncc1)C2` | -1.423% |
| `CC(C)Cc1nc(-c2ccnc(N3CCNCC3)n2)no1` | 20.49% |
| `COc1cccn(CC(=O)N2CCCC3(CCCO3)CC2)c1=O` (stereo unspecified) | 10.08% |
| `CCOC(=O)N1[C@@H](c2ccco2)[C@@H](C(=O)O)C[C@]12CCCCNC2=O` | 15.62% |
| `CNC(=O)Cc1ccc(NC(=O)NCc2ncc(C)s2)cc1` | 3.951% |
| `O=C(NC1CC1)N1Cc2[nH]nc(COCC3CC3)c2C1` | 12.06% |
| `CCC(CC)c1cc(CNC(=O)N2CCCC(C(=O)NC)C2)on1` (stereo unspecified) | 1.423% |
| `CC(=O)Nc1nc(C2CCN(C(C)=O)CC2)cs1` | 12.2% |
| `CC(C(=O)N(C)Cc1ccc(Br)o1)n1cccn1` (stereo unspecified) | 14.49% |
| `O=C(CC1CC1)N1CCC2(COCc3cnc(-c4ccccc4)nc32)C1` (stereo unspecified) | 5.914% |
| `COCCc1noc(CN(C)C2CCCN(c3ccc(C)nn3)C2)n1` (stereo unspecified) | 11.71% |
| `O=C(Cn1cc(-c2ccccc2)cn1)NC(C1CC1)C1CC1` | 26.21% |
| `CCc1nnc2n1CCN(C(=O)c1cc(Br)c[nH]1)C2` | 18.22% |
| `CC(=O)NCc1ccc(S(=O)(=O)NC(=O)c2ccc3c(c2)COC3)cc1` | 9.924% |
| `O=C(c1nc2sccn2c1-c1ncc[nH]1)N1CCCCC1` | 13.35% |
| `CCn1nc(CC(C)C)cc1C(=O)N1CC[C@@H](O)C1` | 13.66% |
| `CCN(C)c1ncnc2c1CCN(C(=O)[C@H]1CCCO1)CC2` | -0.5376% |
| `CC(=O)N1CCCC2(C1)CN(c1nncs1)CCO2` (stereo unspecified) | 16.1% |
| `COCCNC(=O)c1ccc2ccc(N3CCN(CC4CC4)CC3)n2c1` | 10.08% |
| `COc1ccc(CN2C[C@H]3CC[C@](O)(c4ccc(C)cn4)[C@H]3C2)c(F)c1` | 11.3% |
| `COc1ccc(C)cc1CN1CCCC1c1noc(C2CC2)n1` (stereo unspecified) | 18.73% |
| `COc1ccc2c(c1)OCC(CNC1CCc3nc(C)nn3C1)=C2` (stereo unspecified) | -40.11% |
| `O=C(C1CCC1)N1CCC2(COCc3cnc(N4CCOCC4)nc32)C1` (stereo unspecified) | 7.95% |
| `COc1ccc(C2CC(=O)Nc3c2cnn3C)cc1` (stereo unspecified) | 10.37% |
| `Cc1noc(C)c1-c1cc(CC2CCN(C(=O)c3cc[nH]n3)C2)ncn1` (stereo unspecified) | 11.86% |
| `COCC1CC2(CCN(c3ccccn3)CC2)CN1C(C)C` (stereo unspecified) | 7.625% |
| `CC(C)[C@@H]1CN(Cc2c[nH]nc2-c2ccc(F)cc2)C[C@H]1NS(C)(=O)=O` | 16.09% |
| `O=C(CC1=CSC2=NCCN12)N1CCCC(CCc2cccc(F)c2)C1` (stereo unspecified) | 17.34% |
| `Cc1cnn(CC(C)NCc2ccc(OCc3nccn3C)cc2)c1` (stereo unspecified) | 12.32% |
| `CCc1nc(C2CCCN2C(=O)c2csc(COC)n2)no1` (stereo unspecified) | 5.491% |
| `COc1cccc(S(=O)(=O)N2CCN(C)[C@@H]3CS(=O)(=O)C[C@@H]32)c1` | 14.63% |
| `Cc1ccc(C(C(=O)O)N(C)CCCN2CCOCC2)c(C)c1` (stereo unspecified) | 12.73% |
| `Cc1cc(CN2CCN(C(=O)CCc3ccco3)CC2)on1` | 3.046% |
| `Cc1c(-c2n[nH]c3c2CN(CC2CCOC2)CC3)cccc1C(F)(F)F` (stereo unspecified) | 7.829% |
| `CCCOc1cc(C)ccc1NC(=O)NCCC(=O)N(C)C` | 9.36% |
| `CC(C)c1nc(C2CCCN2Cc2ccccc2C#N)no1` (stereo unspecified) | 9.312% |
| `Cc1nn(C)c2cn(C(C)C(=O)NCc3ccc(F)cc3)nc12` (stereo unspecified) | 0.2513% |
| `O=C(c1ccccn1)N(CCO)Cc1cc(Br)ccc1F` | 4.826% |
| `Cc1cnc(N)c(C(=O)C2CCN(C(=O)c3cnc(C)nc3C)CC2)c1` | 11% |
| `CC(=O)Nc1ccc(C(=O)N(C)C(C)Cc2cc(C)ccn2)cn1` (stereo unspecified) | 7.904% |
| `N#CC(NC(=O)c1cccc2c1OCCO2)c1ccc(F)cc1F` (stereo unspecified) | 12.45% |
| `Cc1cnn(CC2CN(Cc3ccc(C(N)=O)cc3)CCO2)c1` (stereo unspecified) | 13.96% |
| `Cc1cnc(NC(=O)N2CCCCCC2)s1` | 18.35% |
| `CC(C)[C@H]1CN(CCCO)C[C@@H]1NC(=O)CCC(F)(F)F` | 6.138% |
| `CC(C)CN1CCN(C)C2(CCN(Cc3ccsc3)CC2)C1=O` | 5.051% |
| `CC(C)(O)CCc1cccc(C(=O)N[C@H](C(N)=O)c2ccccc2)c1` | 17.09% |
| `COc1nn(C)c2c1CCCN(C(=O)c1ccc[nH]1)C2` | 8.982% |
| `CNc1ccc(C)cc1C(=O)N[C@H]1C[C@H]2CN(C)CCN2C1` | 7.94% |
| `CC(=O)Nc1ncc(S(=O)(=O)Nc2ccc(F)cc2F)s1` | 3.734% |
| `CC[C@@H]1N(Cc2ccccn2)CCC[C@]12CCC(=O)N2CCOC` | 8.122% |
| `CS(=O)(=O)N1CCc2nc(NC(=O)Nc3c(F)cccc3F)sc2C1` | 14.29% |
| `Cc1nnc2n1CCN(C(=O)c1ccnc(N(C)C)c1)C2` | 2.41% |
| `COc1cc(C)c(S(=O)(=O)NCc2cccnc2N(C)C)c(C)c1` | 4.53% |
| `COc1c(C2CCCN2c2ncnc3c2CCC3)c(C)nn1C` (stereo unspecified) | 11.78% |
| `COCCOc1ccc(S(=O)(=O)Nc2cccnc2O)cc1C` | 21.99% |
| `CC(CNC(=O)c1cnccn1)Oc1cccc(Br)c1` (stereo unspecified) | 11.04% |
| `CC(C)CNC(=O)[C@H]1C[C@@H]2CN(C(=O)NCCc3ccccc3)C[C@H]1O2` | 6.536% |
| `Cc1cccc(C(=O)N2C[C@@H]3CC[C@H](Oc4cccc(F)c4)[C@@H]3C2)n1` | 16.18% |
| `O=C(NCc1cccnc1)Nc1cc(C(F)(F)F)c[nH]c1=O` | 16.84% |

Some entries from above, unchanged:

For COc1ccc2c(c1)OCC(CNC1CCc3nc(C)nn3C1)=C2 (stereo unspecified) the result was -40.11%.
For O=C(c1sccc1-n1cnnn1)N1CCCCC1 the result was 11.11%.
For CC(C(=O)N(C)Cc1ccc(Br)o1)n1cccn1 (stereo unspecified) the result was 14.49%.
For Cc1cccc(C(=O)N2C[C@@H]3CC[C@H](Oc4cccc(F)c4)[C@@H]3C2)n1 the result was 16.18%.
For Cc1nn(C)c2cn(C(C)C(=O)NCc3ccc(F)cc3)nc12 (stereo unspecified) the result was 0.2513%.

From ChEMBL document CHEMBL3988442, “University of Dundee, Small-Polar-MMV Screening Library” (2021).